Earlier results as cited in patent publication US20220142904A1, “A METHOD OF COLORING KERATINOUS MATERIAL COMPRISING THE USE OF AN ORGANOSILICON COMPOUND, A COLORING COMPOUND, A SEALING REAGENT, AND A MIXTURE OF SILICONES” (Henkel AG & Co. KGaA, priority 2019, published 2022).

Conditions: 25° C.

- solubility in water: more than 20 % by weight
SMILES: CCN(Cc1cccc(S(=O)(=O)[O-])c1)c1ccc(C(=C2C=CC(=[N+](CC)Cc3cccc(S(=O)(=O)[O-])c3)C=C2)c2ccccc2S(=O)(=O)[O-])cc1.[Na+].[Na+] [Acid Blue 9]
